Experimental data as given in patent publication US20070004634A1 (Novo Nordisk A/S, priority 1998, published 2007).
Not every detail of the peptide structures is certain; ends, links or a residue may be inferred. Some results were stated once for a whole list of compounds, not compound by compound. No end group written: not given here.

The chains behind the UniProt entries cited, without tags or fusion partners. Residues count along the entry.
UniProt P08069, 741-935 limits assumed: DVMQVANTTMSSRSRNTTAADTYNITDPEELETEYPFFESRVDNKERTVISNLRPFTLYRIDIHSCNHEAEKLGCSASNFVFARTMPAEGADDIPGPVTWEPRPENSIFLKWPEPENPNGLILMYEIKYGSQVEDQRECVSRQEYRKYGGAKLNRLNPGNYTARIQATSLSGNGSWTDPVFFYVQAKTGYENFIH
UniProt P08069, 31-736 limits assumed: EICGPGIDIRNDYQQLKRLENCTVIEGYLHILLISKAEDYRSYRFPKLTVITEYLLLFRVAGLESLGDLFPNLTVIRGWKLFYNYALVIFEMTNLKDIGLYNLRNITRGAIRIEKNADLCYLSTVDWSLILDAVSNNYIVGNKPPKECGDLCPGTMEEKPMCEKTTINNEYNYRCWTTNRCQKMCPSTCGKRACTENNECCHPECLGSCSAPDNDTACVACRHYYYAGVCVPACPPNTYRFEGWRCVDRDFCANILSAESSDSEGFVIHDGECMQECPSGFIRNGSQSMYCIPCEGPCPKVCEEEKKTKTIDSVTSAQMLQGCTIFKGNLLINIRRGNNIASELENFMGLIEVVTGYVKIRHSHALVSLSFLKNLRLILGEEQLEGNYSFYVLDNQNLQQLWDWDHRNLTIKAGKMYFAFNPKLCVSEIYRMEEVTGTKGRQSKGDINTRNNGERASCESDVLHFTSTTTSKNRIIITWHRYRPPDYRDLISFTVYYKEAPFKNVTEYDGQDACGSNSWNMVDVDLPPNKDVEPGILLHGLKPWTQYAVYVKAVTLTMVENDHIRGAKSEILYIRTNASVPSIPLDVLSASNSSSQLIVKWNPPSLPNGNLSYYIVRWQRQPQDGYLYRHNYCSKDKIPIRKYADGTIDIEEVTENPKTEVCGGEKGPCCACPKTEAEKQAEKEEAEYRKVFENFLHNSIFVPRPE
UniProt P06213, 28-758 limits assumed, stated change not applied: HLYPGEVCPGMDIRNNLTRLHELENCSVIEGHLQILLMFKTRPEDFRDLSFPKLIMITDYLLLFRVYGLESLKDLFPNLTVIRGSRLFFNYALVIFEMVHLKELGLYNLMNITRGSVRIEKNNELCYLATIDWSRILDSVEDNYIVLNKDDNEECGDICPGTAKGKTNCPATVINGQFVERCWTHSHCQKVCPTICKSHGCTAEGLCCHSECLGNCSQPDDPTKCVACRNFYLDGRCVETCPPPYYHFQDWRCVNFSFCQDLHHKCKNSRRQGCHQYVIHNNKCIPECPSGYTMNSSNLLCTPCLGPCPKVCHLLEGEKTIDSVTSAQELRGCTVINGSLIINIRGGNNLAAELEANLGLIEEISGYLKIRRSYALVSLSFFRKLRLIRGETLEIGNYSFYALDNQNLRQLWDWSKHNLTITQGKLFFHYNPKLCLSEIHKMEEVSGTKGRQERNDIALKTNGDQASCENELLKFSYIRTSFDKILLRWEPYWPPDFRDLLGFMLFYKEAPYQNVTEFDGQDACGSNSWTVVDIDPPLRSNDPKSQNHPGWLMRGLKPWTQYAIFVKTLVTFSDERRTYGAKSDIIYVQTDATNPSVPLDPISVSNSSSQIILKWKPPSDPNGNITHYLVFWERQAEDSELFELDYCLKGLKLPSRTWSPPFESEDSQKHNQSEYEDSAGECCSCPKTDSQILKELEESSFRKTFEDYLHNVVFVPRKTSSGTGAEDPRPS
UniProt P06213, 763-956 limits assumed, stated change not applied: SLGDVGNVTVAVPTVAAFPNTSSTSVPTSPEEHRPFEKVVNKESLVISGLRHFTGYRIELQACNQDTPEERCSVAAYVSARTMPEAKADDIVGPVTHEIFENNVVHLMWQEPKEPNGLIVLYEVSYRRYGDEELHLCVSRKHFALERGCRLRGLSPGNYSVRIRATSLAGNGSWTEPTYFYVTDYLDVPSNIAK

Legend:
[1] = molecular target: T1, IGF-1R (Homo sapiens, UniProt P08069); assay: TR-FRET competition with biotinylated-20E2 for rhIGF-1R; conditions: TR-FRET (rhIGF-1R, b-20E2) versus FP (sIR-Fc), summary of Table 22
[2] = molecular target: T2, soluble human insulin receptor-immunoglobulin heavy chain chimera (sIR-Fc) (Homo sapiens, UniProt P06213); assay: Fluorescence polarization, competition with FITC-RP9 for sIR-Fc; type: binding; conditions: FP with FITC-RP9, summary of Table 22
T2 construct: replacing the transmembrane domain and the intracellular domain of IR with constant domains from immunoglobulin Fc or λ subunits; made in house; host or cells: human embryonic kidney 293 cells (Bass et al.)

[3] = molecular target: T1, IGF-1R; assay: TR-FRET dissociation of biotinylated-20E2 from rhIGF-1R; type: binding; conditions: peptides 100 μM, IGF-1 30 μM
Experimental: Best fit non-linear regression analysis of the data, was used to determine dissociation rate constants. Each data point represents a single observation. […] Reactions were allowed to reach equilibrium for 6 h at RT.

[4] = test system: FDC-P2 cells expressing the IL-3 and human IGF-1R receptors; assay: IGF-1 proliferation assay in FDC-P2 cells, agonist format; conditions: read-out: ED50, agonist activity at IGF-1R

Q: With “DYKDFYDAIDQLVRGSARAGGTRDKK [Peptide 20E2]” as the sequence, how does the “binding to IGF-1R compared with IR, in words” value [1] read?
A: lower binding ratios for IGF-1R over IR

Q: And the “potency / affinity at IR, in words” value [2]?
A: slightly less potent

Q: What about the “effect on the rate of dissociation of b-20E2 from IGF-1R” value [3] of the same sequence?
A: dissociation rates of b-20E2 were similar

Q: What about the EC50 [4] of the same sequence?
A: > 10 µM
